Reference: publication PMC4492089, “FOXM1 binds directly to non-consensus sequences in the human genome”
Changes are numbered by the printed parent chain. The exact form of at least one protein or probe is not confirmed. For part of these data: The comparison behind a weaker result is the experiment's own reference, which may not be listed here. Protein sequences can lack the tags named with them.

Legend:
Assay in all cases: fluorescence polarization
[1] = molecular target: T1, FOXM1 DBD N283A/H287A (UniProt Q08050); conditions: binding did not reach saturation; FP: 50 mM Tris-HCl pH 7.5, 5 mM MgCl2, 1 mM DTT, 2% glycerol; protein 80 nM-5 uM; temperature not stated; recombinant protein; protein details: GST; label: 5' 6FAM on top strand
T1 sequence (looked up, limits assumed): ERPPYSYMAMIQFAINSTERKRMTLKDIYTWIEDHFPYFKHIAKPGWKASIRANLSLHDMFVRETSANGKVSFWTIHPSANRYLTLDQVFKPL

[2] = molecular target: T2, FOXM1 DBD N283A (UniProt Q08050); conditions: binding did not reach saturation; FP: 50 mM Tris-HCl pH 7.5, 5 mM MgCl2, 1 mM DTT, 2% glycerol; protein 80 nM-5 uM; temperature not stated; recombinant protein; protein details: GST; label: 5' 6FAM on top strand
T2 sequence (looked up, limits assumed): T1 sequence (looked up, limits assumed) with A53H

[3] = tested on: T3, FOXM1B DBD WT (GST fusion); conditions: Kd could not be determined; FP: 50 mM Tris-HCl pH 7.5, 5 mM MgCl2, 1 mM DTT, 2% glycerol; protein 80 nM-5 uM; temperature not stated; recombinant protein; protein details: GST; label: 5' 6FAM on top strand
T3 sequence (looked up, limits assumed): T1 sequence (looked up, limits assumed) with A49N, A53H, P92Q, L93Q

Row | Sequence | Kd [1] [µM] | Kd [2] [µM] | binding result [3]
1 | AAACAAACAAACAATC (double strand) [FKH consensus 16-mer] | > 5 | > 5 | –
2 | TCGGGAGCATGAGTGC (double strand) [PLK1 16-mer] | – | – | binds more weakly
